According to the supplement of paper PMC7666118:
The other results are listed elsewhere or left out.

Chains of the proteins cited; added tags and fusions are not shown. Lines headed by an entry give the natural chain unless they say otherwise; changes in a name come on top.
UniProt Q96CS2: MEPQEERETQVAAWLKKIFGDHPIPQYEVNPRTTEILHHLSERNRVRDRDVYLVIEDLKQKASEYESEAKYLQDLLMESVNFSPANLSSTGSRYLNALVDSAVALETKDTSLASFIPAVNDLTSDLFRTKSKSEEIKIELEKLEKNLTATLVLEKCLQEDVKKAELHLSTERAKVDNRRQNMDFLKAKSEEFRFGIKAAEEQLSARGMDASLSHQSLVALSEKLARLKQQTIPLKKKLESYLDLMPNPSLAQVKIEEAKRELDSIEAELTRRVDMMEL
UniProt Q13042, whole entry: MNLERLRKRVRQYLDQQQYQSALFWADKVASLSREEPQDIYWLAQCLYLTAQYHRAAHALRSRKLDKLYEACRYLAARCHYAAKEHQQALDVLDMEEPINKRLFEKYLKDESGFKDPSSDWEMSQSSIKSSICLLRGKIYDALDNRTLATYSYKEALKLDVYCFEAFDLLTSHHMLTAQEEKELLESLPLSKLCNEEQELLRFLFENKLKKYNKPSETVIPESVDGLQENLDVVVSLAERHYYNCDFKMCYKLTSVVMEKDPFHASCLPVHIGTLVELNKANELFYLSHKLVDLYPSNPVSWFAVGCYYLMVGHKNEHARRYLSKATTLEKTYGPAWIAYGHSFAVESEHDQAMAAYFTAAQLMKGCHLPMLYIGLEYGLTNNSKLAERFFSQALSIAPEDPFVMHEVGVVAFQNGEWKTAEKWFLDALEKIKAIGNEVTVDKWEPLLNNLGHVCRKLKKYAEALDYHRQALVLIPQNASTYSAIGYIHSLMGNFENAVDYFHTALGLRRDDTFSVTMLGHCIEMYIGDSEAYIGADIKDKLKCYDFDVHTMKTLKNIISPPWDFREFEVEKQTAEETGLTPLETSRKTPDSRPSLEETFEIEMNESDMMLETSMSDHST
UniProt Q9Y281, whole entry: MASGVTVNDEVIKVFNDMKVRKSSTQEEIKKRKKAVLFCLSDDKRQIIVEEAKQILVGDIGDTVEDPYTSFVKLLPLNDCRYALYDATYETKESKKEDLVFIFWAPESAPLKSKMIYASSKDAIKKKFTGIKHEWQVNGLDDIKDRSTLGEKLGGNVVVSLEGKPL
UniProt Q9NUP7: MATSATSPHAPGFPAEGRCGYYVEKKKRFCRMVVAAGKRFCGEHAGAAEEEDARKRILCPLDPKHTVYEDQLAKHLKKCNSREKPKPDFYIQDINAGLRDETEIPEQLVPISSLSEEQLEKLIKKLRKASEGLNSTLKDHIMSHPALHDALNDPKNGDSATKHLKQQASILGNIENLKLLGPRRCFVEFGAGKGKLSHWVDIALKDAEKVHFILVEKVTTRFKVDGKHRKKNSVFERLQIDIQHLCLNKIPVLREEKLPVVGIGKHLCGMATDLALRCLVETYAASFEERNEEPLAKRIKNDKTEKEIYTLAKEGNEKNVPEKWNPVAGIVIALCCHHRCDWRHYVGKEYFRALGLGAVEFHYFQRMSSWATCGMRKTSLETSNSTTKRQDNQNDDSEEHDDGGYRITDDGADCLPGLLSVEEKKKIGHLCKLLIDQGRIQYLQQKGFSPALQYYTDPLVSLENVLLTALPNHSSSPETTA
UniProt P42773: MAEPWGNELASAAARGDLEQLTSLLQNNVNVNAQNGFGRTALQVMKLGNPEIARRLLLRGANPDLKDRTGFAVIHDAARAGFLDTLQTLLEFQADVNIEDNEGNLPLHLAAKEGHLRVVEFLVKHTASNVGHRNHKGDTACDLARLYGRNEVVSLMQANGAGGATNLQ
UniProt P09496: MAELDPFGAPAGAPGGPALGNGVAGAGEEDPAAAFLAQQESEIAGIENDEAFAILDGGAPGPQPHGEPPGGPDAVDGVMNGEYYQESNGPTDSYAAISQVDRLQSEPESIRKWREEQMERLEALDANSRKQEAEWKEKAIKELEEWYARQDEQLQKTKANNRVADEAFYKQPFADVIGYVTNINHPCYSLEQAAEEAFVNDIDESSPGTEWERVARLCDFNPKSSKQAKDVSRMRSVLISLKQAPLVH
UniProt Q9BW85: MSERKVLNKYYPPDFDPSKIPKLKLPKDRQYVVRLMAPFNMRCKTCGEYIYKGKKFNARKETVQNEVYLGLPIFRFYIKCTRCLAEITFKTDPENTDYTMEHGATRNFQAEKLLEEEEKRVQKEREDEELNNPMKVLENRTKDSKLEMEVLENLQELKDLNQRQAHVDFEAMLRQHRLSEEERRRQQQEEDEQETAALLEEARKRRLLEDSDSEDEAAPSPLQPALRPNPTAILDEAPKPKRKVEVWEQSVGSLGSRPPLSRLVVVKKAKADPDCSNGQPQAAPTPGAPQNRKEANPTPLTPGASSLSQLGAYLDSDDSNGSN
UniProt Q96MX0: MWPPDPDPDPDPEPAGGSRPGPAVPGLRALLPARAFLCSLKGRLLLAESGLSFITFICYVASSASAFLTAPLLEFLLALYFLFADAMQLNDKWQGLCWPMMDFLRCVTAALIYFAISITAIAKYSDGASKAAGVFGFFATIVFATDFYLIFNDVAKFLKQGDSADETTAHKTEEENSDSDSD
UniProt O75909: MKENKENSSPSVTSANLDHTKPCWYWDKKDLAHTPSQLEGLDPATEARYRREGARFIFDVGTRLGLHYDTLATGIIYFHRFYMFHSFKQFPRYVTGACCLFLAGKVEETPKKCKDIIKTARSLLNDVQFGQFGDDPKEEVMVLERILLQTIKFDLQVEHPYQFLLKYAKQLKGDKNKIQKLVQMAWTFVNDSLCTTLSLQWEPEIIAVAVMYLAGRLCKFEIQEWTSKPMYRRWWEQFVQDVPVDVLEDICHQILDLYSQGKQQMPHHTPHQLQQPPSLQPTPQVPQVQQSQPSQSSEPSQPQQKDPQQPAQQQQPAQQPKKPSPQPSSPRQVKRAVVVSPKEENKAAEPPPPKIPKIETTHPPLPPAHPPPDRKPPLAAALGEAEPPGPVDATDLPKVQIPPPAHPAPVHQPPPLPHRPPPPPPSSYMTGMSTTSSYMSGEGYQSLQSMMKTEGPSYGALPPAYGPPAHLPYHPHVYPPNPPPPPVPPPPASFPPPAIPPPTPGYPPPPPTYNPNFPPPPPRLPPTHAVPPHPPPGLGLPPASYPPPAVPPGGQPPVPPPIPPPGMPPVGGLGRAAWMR
UniProt Q96JB5: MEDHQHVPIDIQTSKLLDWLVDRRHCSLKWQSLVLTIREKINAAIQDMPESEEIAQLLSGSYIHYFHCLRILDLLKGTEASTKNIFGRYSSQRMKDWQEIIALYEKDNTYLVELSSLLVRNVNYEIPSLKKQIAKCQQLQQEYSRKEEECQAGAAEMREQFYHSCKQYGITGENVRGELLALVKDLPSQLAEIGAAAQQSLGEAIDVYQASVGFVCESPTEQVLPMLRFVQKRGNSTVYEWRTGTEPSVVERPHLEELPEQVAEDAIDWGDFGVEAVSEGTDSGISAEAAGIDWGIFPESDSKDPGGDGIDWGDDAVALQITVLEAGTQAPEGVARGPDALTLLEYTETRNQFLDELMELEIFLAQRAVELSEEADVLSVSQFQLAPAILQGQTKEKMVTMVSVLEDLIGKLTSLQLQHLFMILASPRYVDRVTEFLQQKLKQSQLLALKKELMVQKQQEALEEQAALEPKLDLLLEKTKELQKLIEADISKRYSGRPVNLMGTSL
UniProt Q9H8M5: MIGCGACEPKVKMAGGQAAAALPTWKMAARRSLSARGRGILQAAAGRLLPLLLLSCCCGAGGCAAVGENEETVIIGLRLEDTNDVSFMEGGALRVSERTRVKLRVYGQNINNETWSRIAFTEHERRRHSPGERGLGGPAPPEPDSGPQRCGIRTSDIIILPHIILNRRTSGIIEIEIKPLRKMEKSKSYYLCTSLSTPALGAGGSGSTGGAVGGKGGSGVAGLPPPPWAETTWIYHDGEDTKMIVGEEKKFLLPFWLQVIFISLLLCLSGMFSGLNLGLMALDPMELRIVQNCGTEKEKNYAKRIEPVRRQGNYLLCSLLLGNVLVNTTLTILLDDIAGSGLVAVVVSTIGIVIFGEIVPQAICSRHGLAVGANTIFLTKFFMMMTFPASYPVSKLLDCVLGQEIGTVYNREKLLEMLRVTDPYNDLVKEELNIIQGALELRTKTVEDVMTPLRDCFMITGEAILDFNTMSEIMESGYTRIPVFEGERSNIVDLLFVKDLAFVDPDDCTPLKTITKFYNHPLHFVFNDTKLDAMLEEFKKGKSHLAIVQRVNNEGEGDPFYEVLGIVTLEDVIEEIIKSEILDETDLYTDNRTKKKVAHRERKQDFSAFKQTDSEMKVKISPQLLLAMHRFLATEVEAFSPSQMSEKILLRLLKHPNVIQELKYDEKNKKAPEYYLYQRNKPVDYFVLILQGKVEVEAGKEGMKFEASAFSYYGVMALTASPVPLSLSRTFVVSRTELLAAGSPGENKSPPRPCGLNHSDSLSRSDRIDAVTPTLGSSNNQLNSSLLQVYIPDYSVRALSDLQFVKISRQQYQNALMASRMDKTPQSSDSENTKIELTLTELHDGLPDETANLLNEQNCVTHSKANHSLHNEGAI
UniProt Q86X83, whole entry: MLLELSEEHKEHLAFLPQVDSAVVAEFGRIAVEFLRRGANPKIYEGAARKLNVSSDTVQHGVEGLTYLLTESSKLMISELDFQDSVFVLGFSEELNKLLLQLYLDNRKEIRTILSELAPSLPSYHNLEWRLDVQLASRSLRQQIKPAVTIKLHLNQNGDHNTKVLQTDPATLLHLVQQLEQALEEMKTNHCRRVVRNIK
UniProt Q9BSY4: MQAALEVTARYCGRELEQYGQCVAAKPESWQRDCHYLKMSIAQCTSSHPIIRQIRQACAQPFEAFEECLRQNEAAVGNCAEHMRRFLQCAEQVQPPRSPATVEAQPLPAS
UniProt Q96MW5: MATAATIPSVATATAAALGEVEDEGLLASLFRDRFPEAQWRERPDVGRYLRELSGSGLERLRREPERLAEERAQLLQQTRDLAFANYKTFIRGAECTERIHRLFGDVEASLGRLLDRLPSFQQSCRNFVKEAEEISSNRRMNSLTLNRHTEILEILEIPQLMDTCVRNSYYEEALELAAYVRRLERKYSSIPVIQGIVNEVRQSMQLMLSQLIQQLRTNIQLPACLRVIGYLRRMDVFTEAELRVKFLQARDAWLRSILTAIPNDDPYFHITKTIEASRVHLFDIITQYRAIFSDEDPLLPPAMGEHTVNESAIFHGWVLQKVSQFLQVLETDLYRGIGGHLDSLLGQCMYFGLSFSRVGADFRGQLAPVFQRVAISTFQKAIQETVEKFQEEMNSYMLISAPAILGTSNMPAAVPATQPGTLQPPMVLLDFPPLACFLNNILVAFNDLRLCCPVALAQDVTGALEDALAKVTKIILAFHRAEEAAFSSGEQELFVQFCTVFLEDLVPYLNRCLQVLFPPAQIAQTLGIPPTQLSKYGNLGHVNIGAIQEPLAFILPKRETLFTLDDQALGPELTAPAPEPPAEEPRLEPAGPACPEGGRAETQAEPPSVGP
UniProt Q9H078: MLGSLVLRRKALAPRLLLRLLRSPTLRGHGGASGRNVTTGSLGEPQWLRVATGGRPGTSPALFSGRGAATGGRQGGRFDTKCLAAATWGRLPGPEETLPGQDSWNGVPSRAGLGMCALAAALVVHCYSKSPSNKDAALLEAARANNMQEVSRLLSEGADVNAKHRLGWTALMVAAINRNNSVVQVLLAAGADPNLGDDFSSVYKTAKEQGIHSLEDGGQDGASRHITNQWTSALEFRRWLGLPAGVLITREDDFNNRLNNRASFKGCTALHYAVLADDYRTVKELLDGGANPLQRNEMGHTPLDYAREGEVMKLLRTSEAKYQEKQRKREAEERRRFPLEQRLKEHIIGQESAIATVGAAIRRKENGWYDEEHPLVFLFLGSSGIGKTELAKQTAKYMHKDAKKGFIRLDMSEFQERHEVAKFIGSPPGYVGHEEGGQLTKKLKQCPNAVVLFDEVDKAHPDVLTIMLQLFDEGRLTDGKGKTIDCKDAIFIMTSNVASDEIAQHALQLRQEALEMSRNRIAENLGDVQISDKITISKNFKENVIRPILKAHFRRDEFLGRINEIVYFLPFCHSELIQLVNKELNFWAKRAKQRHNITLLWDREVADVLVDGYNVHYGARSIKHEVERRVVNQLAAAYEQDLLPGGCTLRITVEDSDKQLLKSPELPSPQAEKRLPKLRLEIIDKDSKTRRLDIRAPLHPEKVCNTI
UniProt Q96A33: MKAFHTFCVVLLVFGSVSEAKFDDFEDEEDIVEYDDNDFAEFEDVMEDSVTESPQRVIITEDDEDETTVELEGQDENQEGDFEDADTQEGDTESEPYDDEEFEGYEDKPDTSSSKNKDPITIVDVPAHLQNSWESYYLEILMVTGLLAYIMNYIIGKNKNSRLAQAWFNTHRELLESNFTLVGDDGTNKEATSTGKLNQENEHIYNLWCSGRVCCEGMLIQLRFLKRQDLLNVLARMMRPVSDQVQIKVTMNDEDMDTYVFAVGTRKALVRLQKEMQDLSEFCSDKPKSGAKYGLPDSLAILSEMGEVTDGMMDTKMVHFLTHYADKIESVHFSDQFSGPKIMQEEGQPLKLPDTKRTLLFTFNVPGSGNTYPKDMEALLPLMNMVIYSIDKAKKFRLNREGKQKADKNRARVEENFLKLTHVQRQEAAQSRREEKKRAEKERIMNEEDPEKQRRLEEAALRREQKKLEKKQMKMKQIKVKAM

compound: COc1ccc(Cn2ccc3ccc(C(=O)NO)cc32)cc1; experiment: dose-dependent thermal stabilisation call (2D-TPP, DLPTP, 10% FDR) (binary (1 = stabilised)); higher = stabilised by the compound; details: system: HL-60 intact cells; concentration range 0.04-10 µM

Target	dose-dependent thermal stabilisation call
CCDC5 (UniProt Q96CS2)	inactive: 0
CHN1 (UniProt P15882)	inactive: 0
CDC16 (UniProt Q13042)	inactive: 0
CFL2 (UniProt Q9Y281)	inactive: 0
CCDC76 (UniProt Q9NUP7)	active: 1
COG2 (UniProt Q14746)	inactive: 0
CCDC99 (UniProt Q96EA4)	inactive: 0
CDKN2C (UniProt P42773)	inactive: 0
CLPTM1 (UniProt O96005)	inactive: 0
CLTA (UniProt P09496)	inactive: 0
CCDC94 (UniProt Q9BW85)	inactive: 0
CMTM3 (UniProt Q96MX0)	inactive: 0
CCNK (UniProt O75909)	inactive: 0
CDK5RAP3 (UniProt Q96JB5)	inactive: 0
CNNM2 (UniProt Q9H8M5)	inactive: 0
CLIP1 (UniProt P30622)	inactive: 0
COMMD2 (UniProt Q86X83)	inactive: 0
CES3 (UniProt Q6UWW8)	inactive: 0
CDC37L1 (UniProt Q7L3B6)	inactive: 0
CHCHD5 (UniProt Q9BSY4)	inactive: 0
CDC73 (UniProt Q6P1J9)	inactive: 0
COG8 (UniProt Q96MW5)	inactive: 0
CLPB (UniProt Q9H078)	inactive: 0
CENPH (UniProt Q9H3R5)	inactive: 0
CNOT2 (UniProt Q9NZN8)	inactive: 0
CCDC47 (UniProt Q96A33)	inactive: 0
CCDC44 (UniProt Q9BSH4)	inactive: 0

Part of the list above, bar-delimited:
Target | dose-dependent thermal stabilisation call
CDK5RAP3 (UniProt Q96JB5) | inactive: 0
CNOT2 (UniProt Q9NZN8) | inactive: 0
